# Measured values reported in patent EP0317053B1, “Trigramin- a platelet aggregation inhibiting polypeptide” (Temple University of the Commonwealth System of Higher …, priority 1987, dated 1989).
# Part of at least one peptide drawing is inferred or uncertain, most often the ends.
# Tested on: GPIIb-GPIIIa complex
# Assay: Binding of 125I-trigramin to human platelets
# Details: both ligands
compound,measurement,value
N=C(N)NCCC[C@H](N)C(=O)NCC(=O)N[C@@H](CC(=O)O)C(=O)N[C@@H](CO)C(=O)O [Arg-Gly-Asp-Ser],inhibition of the binding of ¹²⁵I-trigramin and of ¹²⁵I-fibrinogen to human platelets,inhibited
